Where two headings read alike, the source gives them in different places. Results are given in words; binding and its absence hold for the method and conditions named. Binding seen in cells or lysates may run through a third protein. Some results given as binding are weak or reduced against the parent protein; the word gives no strength. For some assays here: Sequences can lack the tags named with a protein. One block for each molecule: values may come before it.
Tests used:
[1] = molecular target: HA-Axin1-WT (not stated (human or mouse cDNA cloned)) (UniProt O15169); test: co-IP; HA-Axin1 (WT or K147R) precipitated with anti-HA from lysates of transfected HEK293T cells, western blot; co-IP buffer 50 mM Tris pH 8.0, 0.5% NP-40, 1 mM EDTA, 150 mM NaCl or RIPA, 4°C; cells with or without Wnt3a-conditioned medium, SIRT4 overexpression or MG132 (Figures 2J, 5A, 5D, 5G)
[2] = molecular target: HA-Axin1-K147R (not stated (human or mouse cDNA cloned)) (UniProt O15169); test: as above
[3] = molecular target: adenomatous polyposis coli (APC) (human (endogenous in HEK293T)) (UniProt P25054); test: co-IP; endogenous APC precipitated with anti-APC from lysates of HEK293T cells transfected with HA-Axin1-WT or K147R and treated with Wnt3a-conditioned medium for 30 minutes; Axin1 detected with anti-HA (Figure 5B)
[4] = molecular target: HA-Axin1-WT (not stated (human or mouse cDNA cloned)) (UniProt O15169); test: co-IP; HA-Axin1 (WT or K147R) precipitated with anti-HA from lysates of transfected HEK293T cells, western blot; co-IP buffer 50 mM Tris pH 8.0, 0.5% NP-40, 1 mM EDTA, 150 mM NaCl or RIPA, 4°C; cells with or without Wnt3a-conditioned medium, SIRT4 overexpression or MG132 (Figures 2J, 5A, 5D, 5G); remark: listed apart in the source

By UniProt entry, the sequences of proteins in these tests, tags left out. Where a name states a change or a piece, a line headed by the entry shows the natural chain unless it says otherwise.
UniProt O15169: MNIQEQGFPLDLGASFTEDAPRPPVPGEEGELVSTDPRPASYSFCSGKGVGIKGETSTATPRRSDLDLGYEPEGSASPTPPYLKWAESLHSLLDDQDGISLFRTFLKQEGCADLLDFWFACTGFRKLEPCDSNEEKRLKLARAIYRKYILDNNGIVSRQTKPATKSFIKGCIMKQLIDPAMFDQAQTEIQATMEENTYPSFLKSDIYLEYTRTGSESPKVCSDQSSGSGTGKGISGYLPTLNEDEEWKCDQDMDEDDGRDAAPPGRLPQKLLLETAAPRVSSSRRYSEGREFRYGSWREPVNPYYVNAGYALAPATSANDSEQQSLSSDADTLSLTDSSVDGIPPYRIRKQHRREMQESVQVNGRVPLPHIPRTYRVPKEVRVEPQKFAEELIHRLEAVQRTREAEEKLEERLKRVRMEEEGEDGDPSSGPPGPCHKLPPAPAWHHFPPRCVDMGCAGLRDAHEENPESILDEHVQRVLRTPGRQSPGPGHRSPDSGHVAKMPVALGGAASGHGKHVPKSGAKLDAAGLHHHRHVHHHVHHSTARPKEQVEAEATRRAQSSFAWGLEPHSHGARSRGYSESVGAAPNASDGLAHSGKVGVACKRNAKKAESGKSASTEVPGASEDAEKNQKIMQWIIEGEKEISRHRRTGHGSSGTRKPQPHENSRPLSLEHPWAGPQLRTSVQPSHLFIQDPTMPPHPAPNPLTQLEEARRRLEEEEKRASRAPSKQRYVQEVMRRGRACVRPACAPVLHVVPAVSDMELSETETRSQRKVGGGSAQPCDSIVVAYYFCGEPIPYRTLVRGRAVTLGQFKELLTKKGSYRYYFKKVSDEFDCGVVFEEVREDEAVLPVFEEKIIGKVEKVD
UniProt P25054: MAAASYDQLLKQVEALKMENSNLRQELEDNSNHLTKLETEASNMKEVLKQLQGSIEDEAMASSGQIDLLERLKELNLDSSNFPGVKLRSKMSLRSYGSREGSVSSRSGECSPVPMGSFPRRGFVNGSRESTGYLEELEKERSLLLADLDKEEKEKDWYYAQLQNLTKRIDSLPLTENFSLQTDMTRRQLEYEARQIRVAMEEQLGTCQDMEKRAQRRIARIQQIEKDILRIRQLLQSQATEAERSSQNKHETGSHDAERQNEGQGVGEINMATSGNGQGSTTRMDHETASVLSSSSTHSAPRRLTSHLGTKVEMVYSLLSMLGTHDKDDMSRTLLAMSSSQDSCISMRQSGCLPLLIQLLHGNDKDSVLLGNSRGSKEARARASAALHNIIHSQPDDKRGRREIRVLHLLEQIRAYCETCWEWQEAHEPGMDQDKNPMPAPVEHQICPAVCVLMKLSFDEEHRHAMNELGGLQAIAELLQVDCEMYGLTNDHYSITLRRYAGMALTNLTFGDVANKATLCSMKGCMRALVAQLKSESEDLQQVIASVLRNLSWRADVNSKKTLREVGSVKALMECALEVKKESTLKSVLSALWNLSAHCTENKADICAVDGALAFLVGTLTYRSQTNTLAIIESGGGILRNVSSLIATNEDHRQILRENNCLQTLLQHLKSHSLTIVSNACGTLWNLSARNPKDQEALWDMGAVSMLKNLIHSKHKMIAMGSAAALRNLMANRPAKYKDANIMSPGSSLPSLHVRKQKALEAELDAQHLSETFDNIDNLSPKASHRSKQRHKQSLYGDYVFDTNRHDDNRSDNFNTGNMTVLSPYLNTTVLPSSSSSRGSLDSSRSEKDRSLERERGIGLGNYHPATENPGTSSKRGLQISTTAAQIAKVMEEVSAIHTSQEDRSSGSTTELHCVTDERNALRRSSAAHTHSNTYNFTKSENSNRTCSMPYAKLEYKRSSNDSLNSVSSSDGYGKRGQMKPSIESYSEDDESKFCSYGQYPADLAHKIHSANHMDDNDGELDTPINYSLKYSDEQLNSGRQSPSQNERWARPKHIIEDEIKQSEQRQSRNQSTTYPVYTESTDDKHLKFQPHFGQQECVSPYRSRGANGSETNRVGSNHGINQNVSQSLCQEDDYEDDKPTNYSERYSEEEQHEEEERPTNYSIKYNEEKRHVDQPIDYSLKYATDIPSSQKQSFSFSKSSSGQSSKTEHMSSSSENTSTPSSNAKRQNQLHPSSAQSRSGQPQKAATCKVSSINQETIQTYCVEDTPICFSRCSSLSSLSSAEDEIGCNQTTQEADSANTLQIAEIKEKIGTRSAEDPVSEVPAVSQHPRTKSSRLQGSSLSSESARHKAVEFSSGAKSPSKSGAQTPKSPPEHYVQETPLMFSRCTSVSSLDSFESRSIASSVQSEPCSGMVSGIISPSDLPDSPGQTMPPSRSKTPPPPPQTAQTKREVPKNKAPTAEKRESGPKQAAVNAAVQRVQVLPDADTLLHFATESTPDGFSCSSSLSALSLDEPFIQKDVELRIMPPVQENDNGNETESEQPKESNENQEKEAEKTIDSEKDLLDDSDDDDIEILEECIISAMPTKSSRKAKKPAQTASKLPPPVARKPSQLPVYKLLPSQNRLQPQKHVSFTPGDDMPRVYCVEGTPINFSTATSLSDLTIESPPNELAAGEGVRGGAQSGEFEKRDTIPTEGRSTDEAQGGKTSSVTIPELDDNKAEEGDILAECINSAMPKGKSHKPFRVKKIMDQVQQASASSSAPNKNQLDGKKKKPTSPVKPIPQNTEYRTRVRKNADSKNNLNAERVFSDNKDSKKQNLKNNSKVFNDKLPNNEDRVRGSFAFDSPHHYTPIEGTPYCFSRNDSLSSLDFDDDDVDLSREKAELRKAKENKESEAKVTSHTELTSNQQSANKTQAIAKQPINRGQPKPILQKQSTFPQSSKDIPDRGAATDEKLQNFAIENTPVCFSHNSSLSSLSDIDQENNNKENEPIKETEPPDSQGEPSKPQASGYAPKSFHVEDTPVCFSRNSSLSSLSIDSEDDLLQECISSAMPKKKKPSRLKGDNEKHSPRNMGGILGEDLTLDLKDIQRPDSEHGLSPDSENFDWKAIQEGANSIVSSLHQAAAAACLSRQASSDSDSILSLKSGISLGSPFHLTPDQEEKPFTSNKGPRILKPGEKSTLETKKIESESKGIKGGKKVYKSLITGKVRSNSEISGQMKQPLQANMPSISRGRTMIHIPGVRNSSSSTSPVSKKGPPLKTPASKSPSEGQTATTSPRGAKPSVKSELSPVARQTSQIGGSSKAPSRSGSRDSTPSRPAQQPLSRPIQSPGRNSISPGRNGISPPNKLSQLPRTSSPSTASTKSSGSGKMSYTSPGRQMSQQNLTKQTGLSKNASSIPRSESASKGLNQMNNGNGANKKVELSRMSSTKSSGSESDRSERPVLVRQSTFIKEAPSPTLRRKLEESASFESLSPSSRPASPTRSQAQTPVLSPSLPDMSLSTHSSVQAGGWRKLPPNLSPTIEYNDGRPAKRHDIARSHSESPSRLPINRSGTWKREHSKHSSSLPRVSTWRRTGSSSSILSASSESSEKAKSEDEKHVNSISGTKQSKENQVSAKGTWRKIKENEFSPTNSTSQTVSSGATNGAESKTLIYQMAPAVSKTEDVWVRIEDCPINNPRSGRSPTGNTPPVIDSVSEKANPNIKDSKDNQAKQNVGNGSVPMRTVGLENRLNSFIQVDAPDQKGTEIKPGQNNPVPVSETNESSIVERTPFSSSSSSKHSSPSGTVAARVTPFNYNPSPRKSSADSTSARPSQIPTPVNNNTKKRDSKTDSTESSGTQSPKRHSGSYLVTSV
UniProt P35222: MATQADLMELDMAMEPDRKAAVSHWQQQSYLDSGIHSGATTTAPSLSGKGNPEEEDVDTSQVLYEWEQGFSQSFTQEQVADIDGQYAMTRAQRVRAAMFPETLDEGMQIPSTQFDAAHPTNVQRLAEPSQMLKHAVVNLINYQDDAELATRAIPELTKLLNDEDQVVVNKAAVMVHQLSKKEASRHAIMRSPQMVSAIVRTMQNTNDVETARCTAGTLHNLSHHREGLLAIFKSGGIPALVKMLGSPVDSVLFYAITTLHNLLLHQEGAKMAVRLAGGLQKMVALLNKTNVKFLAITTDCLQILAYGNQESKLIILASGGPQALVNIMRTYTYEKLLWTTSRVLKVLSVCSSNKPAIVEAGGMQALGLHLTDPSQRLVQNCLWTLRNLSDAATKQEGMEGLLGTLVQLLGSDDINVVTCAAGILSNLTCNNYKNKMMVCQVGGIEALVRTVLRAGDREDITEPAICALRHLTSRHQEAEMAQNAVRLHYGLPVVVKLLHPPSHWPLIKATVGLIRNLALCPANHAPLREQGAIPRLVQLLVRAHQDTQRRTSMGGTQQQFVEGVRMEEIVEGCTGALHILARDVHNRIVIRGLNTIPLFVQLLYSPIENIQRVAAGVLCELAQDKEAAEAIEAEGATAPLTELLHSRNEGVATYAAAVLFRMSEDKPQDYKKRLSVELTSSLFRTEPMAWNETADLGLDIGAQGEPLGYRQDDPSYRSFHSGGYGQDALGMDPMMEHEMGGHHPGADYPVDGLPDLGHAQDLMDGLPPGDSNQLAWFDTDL

Molecule: HA-Axin1-WT (from UniProt O15169 1-862)
binding [3]: binds

Molecule: HA-Axin1-K147R (from UniProt O15169 1-862)
binding [3]: binds

Now from value to molecule:

binding [1]: binds
binding [2]: binds
Molecule: phosphorylated β-catenin (from UniProt P35222 1-781)

binding [4]: binds
B1: SIRT4-Myc (enzyme, UniProt Q9Y6E7 29-314)
chain: IGLFVPASPPLDPEKVKELQRFITLSKRLLVMTGAGISTESGIPDYRSEKVGLYARTDRRPIQHGDFVRSAPIRQRYWARNFVGWPQFSSHQPNPAHWALSTWEKLGKLYWLVTQNVDALHTKAGSRRLTELHGCMDRVLCLDCGEQTPRGVLQERFQVLNPTWSAEAHGLAPDGDVFLSEEQVRSFQVPTCVQCGGHLKPDVVFFGDTVNPDKVDFVHKRVKEADSLLVVGSSLQVYSGYRFILTAWEKKLPIAILNIGPTRSDDLACLKLNSRCGELLPLIDPC

Source: PMC9190513
